# Experimental data published in the supplement of paper PMC9135407.
# Where “and” joins values, the source holds several entries; their conditions need not be identical. Identical values can stand only once. Counter-ions that a name gives are not always drawn. ± gives the standard deviation of the averaged measurements. The list shows a part of the results. Part of the spread comes from offsets between plates or batches.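 Primary human stellate myofibroblasts activated in culture; inactivation shown by regained lipid droplets. Readout: fraction of Hoechst-counted cells exceeding a per-plate Bodipy threshold, duplicate wells, each plate with DMSO negative and nortriptyline positive controls. Hits: control-normalized score beyond the plate's top-tenth-percentile nortriptyline wells, or among its three best wells. Final well concentrations unstated.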
# System: primary human hepatic stellate cells (donor 1)
# Test: percent Bodipy-positive cells; higher = more lipid droplet accumulation
# Settings: 48 h
# [1] = library stock concentration: 1 mM
# [2] = library stock concentration: 3.33 mM
# [3] = library stock concentration: 10 mM
# [4] = library stock concentration: 2 mM
# [5] = library stock concentration: 5.8 mM
structure (smiles),measurement,setting,value
CCN(CC)CCCCCCCCOC(=O)c1cc(OC)c(OC)c(OC)c1,percent Bodipy-positive cells,library stock concentration: 12.6 mM,93.31 ± 0.32%
Cc1ccc(NC(=O)CCCCCC(=O)Nc2ccccc2N)cc1 [Pimelic Diphenylamide 106],percent Bodipy-positive cells,[1],18.5 ± 2.8%
Cc1ccc(-c2cc(C(F)(F)F)nn2-c2ccc(S(N)(=O)=O)cc2)cc1 [Celecoxib],percent Bodipy-positive cells,[2],20.4 ± 3.7%
same,percent Bodipy-positive cells,library stock concentration: 5.2 mM,33.4% and 10.7%
CC(C)[N+]1(C)[C@@H]2CC[C@H]1C[C@@H](OC(=O)C(CO)c1ccccc1)C2 (stereo partly drawn) [Ipratropium bromide],percent Bodipy-positive cells,,26.69 ± 0.19%
same,percent Bodipy-positive cells,library stock concentration: 4.9 mM,4.9 ± 0.14%
same,percent Bodipy-positive cells,[3],19.5% and 31.2% and 8%
CC(C)[N+]1(C)[C@@H]2CC[C@H]1C[C@@H](OC(=O)C(CO)c1ccccc1)C2 (stereo partly drawn) [Ipratropium Bromide],percent Bodipy-positive cells,[2],7.75 ± 0.012%
same,percent Bodipy-positive cells,[3],18.1% and 40.8%
CC(C)ON(CC(=O)NO)S(=O)(=O)c1ccc(-c2ccccc2)cc1,percent Bodipy-positive cells,[1],11.8 ± 2.1%
Cc1[nH]c(/C=C2/C(=O)Nc3ccc(S(=O)(=O)N(C)c4cccc(Cl)c4)cc32)c(C)c1C(=O)N1CCN(C)CC1,percent Bodipy-positive cells,[4],84.4 ± 1.4%
same,percent Bodipy-positive cells,[3],99.8 ± 0.28%
COc1cccc2c1[C@@H]1CN(CCCCn3c(=O)[nH]c4c(sc5ncc(-c6ccccc6)nc54)c3=O)C[C@@H]1CO2.Cl [Fiduxosin hydrochloride],percent Bodipy-positive cells,[3],90.3 ± 4.4%
CC(CNC1CCCCC1)OC(=O)c1ccccc1 (stereo not drawn) [Hexylcaine hydrochloride],percent Bodipy-positive cells,,11.1 ± 3.7%
O=C(O)c1cccc(-c2noc(-c3ccccc3F)n2)c1 [Ataluren (PTC124)],percent Bodipy-positive cells,[2],8.01 ± 1.9%
same,percent Bodipy-positive cells,[3],10.5 ± 1.9%
Nc1ccc(S(=O)(=O)Nc2nccs2)cc1 [Sulfathiazole],percent Bodipy-positive cells,,21.5 ± 8.8%
same,percent Bodipy-positive cells,[2],18.3 ± 5.9%
same,percent Bodipy-positive cells,library stock concentration: 7.8 mM,12.6 ± 4.9%
same,percent Bodipy-positive cells,[3],22.9% and 16.7%
CN[C@H]1CC[C@@H](c2ccc(Cl)c(Cl)c2)c2ccccc21 [Sertraline hydrochloride],percent Bodipy-positive cells,[5],85.5 ± 1.8%
CN[C@H]1CC[C@@H](c2ccc(Cl)c(Cl)c2)c2ccccc21 [Sertraline HCl],percent Bodipy-positive cells,[2],52.8 ± 17%
same,percent Bodipy-positive cells,[3],99.1 ± 1.3%
CN[C@H]1CC[C@@H](c2ccc(Cl)c(Cl)c2)c2ccccc21 [Sertraline],percent Bodipy-positive cells,[3],79.1% and 99.2%
CCOC(=O)C(Cc1ccc(O)cc1)NC(C)=O (stereo not drawn) [Acetyl tyrosine ethyl ester],percent Bodipy-positive cells,[3],32.1 ± 2.1%
COCCNC(=O)COc1ccc(OCCNC[C@H](O)COc2ccccc2)cc1 [ZD 7114 hydrochloride],percent Bodipy-positive cells,[3],19.3 ± 3.8%
CCN(CC)CCCCNc1ncc2cc(-c3cc(OC)cc(OC)c3)c(NC(=O)NC(C)(C)C)nc2n1,percent Bodipy-positive cells,[2],98.3 ± 1.7%
same,percent Bodipy-positive cells,[3],98.9 ± 1.5%
CCOC(=O)C1=C(C)NC(=S)NC1c1cccc(O)c1 (stereo not drawn) [Monastrol],percent Bodipy-positive cells,[3],7.21 ± 1.9%
same,percent Bodipy-positive cells,library stock concentration: 17.1 mM,24.23 ± 0.1%
CCn1c(N)c(C(=O)NC)c(=O)c2ccc(C#CC(C)(O)COC)nc21 (stereo not drawn),percent Bodipy-positive cells,[2],5.29 ± 0.95%
same,percent Bodipy-positive cells,[3],8.97 ± 1.6%
CC[C@H]1OC(=O)[C@H](C)[C@@H](O[C@H]2C[C@@](C)(OC)[C@@H](O)[C@H](C)O2)[C@H](C)[C@@H](O[C@@H]2O[C@H](C)C[C@H](N(C)C)[C@H]2O)[C@](C)(O)C[C@@H](C)CN(C)[C@H](C)[C@@H](O)[C@]1(C)O [Azithromycin dihydrate],percent Bodipy-positive cells,[3],94 ± 3.7%
CC[C@H]1OC(=O)[C@H](C)[C@@H](O[C@H]2C[C@@](C)(OC)[C@@H](O)[C@H](C)O2)[C@H](C)[C@@H](O[C@@H]2O[C@H](C)C[C@H](N(C)C)[C@H]2O)[C@](C)(O)C[C@@H](C)CN(C)[C@H](C)[C@@H](O)[C@]1(C)O [Azithromycin],percent Bodipy-positive cells,[2],41.9 ± 7.4%
same,percent Bodipy-positive cells,[3],68.5% and 70.1% and 90.6%
C[C@@H]1CCC[C@H](C)N1NC(=O)c1ccc(Cl)c(S(N)(=O)=O)c1 [Clopamide],percent Bodipy-positive cells,,23.3 ± 1.7%
same,percent Bodipy-positive cells,[5],8.88% and 10.4%
CN(C)C(=O)CCSC(SCCC(=O)O)c1cccc(/C=C/c2ccc3ccc(Cl)cc3n2)c1 (stereo not drawn) [MK 571 (sodium salt)],percent Bodipy-positive cells,[1],15.3 ± 7.8%
CN1CCc2nc(C(=O)N[C@@H]3C[C@@H](C(=O)N(C)C)CC[C@@H]3NC(=O)C(=O)Nc3ccc(Cl)cn3)sc2C1 [Edoxaban],percent Bodipy-positive cells,[2],27 ± 4.3%
same,percent Bodipy-positive cells,[3],32.8 ± 1.3%
OCCn1cc(-c2ccc3c(c2)CC/C3=N\O)c(-c2ccncc2)n1,percent Bodipy-positive cells,library stock concentration: 80 uM,23.4 ± 9.4%
same,percent Bodipy-positive cells,library stock concentration: 400 uM,24.7 ± 3.7%
same,percent Bodipy-positive cells,[4],25.6 ± 16%
same,percent Bodipy-positive cells,[2],5.97 ± 1.2%
same,percent Bodipy-positive cells,[3],12.8% and 12.4%
CCC(C)(C)N=C(NC#N)Nc1cccnc1,percent Bodipy-positive cells,library stock concentration: 9.9 mM,6.23 ± 0.32%
C1CCC(N=C(NC23CC4CC(CC(C4)C2)C3)N2CCOCC2)CC1,percent Bodipy-positive cells,[3],27.5 ± 7.7%
NC1CCN(O)C1=O (stereo not drawn),percent Bodipy-positive cells,[3],43.2 ± 6.8%
CCS(=O)(=O)c1cccc(-c2cc(C(=O)NC3CCN(C)CC3)c(C)c3[nH]c4ncc(C)cc4c23)c1,percent Bodipy-positive cells,[2],75 ± 0.81%
same,percent Bodipy-positive cells,[3],87.49 ± 0.55%
COC(=O)[C@H](Cc1ccccc1)NC(=O)[C@@H](N)CC(=O)O [Aspartame],percent Bodipy-positive cells,[2],8.74 ± 7%
same,percent Bodipy-positive cells,library stock concentration: 6.8 mM,12.3 ± 4.1%
same,percent Bodipy-positive cells,[3],7.85% and 31.9%
C=C1O[C@@](CO)(n2cnc3c(N)ncnc32)[C@H](O)[C@@H]1O [Decoyinine],percent Bodipy-positive cells,library stock concentration: 17.9 mM,18.9 ± 5.8%
O=C(/C=C/c1ccc(O)c(O)c1)O[C@H](Cc1ccc(O)c(O)c1)C(=O)O [Rosmarinic Acid],percent Bodipy-positive cells,[1],11.1 ± 2.3%
O=C(/C=C/c1ccc(O)c(O)c1)O[C@H](Cc1ccc(O)c(O)c1)C(=O)O [Rosmarinic acid],percent Bodipy-positive cells,[3],30.3% and 5.35%
NC(=O)C1CCCc2c1[nH]c1ccc(Cl)cc21 (stereo not drawn) [EX 527 (Selisistat)],percent Bodipy-positive cells,[2],5.96 ± 1.3%
same,percent Bodipy-positive cells,[3],6.1 ± 0.092%
